From article PMC11183229 come the findings set out here.

The chains behind the UniProt entries cited, without tags or fusion partners.
UniProt P21279: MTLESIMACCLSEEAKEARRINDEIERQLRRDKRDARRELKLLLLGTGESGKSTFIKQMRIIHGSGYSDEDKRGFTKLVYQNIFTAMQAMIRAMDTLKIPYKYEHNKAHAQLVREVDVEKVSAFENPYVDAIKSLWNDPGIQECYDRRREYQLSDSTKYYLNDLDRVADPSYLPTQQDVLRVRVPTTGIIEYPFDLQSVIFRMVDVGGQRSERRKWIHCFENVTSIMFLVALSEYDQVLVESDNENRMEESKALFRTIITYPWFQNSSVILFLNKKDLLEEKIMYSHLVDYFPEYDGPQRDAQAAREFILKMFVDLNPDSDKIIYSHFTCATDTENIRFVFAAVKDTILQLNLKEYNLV

No constants are given. Whether binding was seen depends on the method and setting. In cells and extracts the contact can be indirect. Some results given as binding are weak or reduced against the parent protein; the word gives no strength. Sequences can lack the tags named with a protein.

One test deals with T1, HA-tagged TMC6 (mouse) (UniProt Q7TN60).
T1 sequence: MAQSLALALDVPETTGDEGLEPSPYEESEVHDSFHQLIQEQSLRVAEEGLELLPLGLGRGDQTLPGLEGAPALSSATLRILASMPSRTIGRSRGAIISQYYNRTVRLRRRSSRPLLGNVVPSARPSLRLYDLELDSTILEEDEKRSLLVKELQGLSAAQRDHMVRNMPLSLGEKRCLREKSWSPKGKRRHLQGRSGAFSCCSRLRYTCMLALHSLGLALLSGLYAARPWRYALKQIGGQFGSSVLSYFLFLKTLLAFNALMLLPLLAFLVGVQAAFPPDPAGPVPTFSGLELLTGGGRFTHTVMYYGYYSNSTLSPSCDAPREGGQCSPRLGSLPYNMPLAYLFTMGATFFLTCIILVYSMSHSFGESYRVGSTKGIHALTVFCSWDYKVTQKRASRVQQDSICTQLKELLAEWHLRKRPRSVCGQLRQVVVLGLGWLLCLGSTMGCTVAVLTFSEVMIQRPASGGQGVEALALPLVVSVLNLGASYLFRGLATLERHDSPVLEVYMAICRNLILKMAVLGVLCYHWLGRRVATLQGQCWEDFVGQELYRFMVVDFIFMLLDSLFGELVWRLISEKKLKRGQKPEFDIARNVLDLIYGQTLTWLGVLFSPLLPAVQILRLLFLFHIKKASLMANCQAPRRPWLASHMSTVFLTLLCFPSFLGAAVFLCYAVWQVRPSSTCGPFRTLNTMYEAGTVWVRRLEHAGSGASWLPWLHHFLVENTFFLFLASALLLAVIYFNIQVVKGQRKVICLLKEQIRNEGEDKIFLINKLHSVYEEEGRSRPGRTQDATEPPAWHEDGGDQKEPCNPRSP
The test can be described thus: co-IP; reverse IP with antibody against HA from lysate of ND7/23 cells overexpressing HA-TMC6 and FLAG-tagged Gαq; immunoblot against FLAG. (In general: In western blotting, separated proteins are transferred to a membrane and probed.)

Test [1] deals with FLAG-tagged Gαq (UniProt P21279). The test can be described thus: co-IP; IP with antibody against FLAG from lysate of ND7/23 cells overexpressing Gαq-FLAG and HA-TMC6 or a deletion form; immunoblot against HA.
For test [2] the target is unchanged. The test can be described thus: co-IP; IP with antibody against FLAG from lysate of ND7/23 cells overexpressing Gαq-FLAG, HA-TMC6 and the blocking peptide amino acids 780–810 (competition).

Take “FLAG-tagged Gαq (from UniProt P21279 1-359)”: the binding entry with HA-tagged TMC6 (mouse) is reported as “binds”.

B1: HA-tagged TMC6 (protein, UniProt Q7TN60 1-810)
chain: T1 sequence
Consider B1, for which the binding result with FLAG-tagged Gαq [1] and in the test with FLAG-tagged Gαq [2] was “binds” throughout.

For SRPGRTQDATEPPAWHEDGGDQKEPCNPRSP (peptide, UniProt Q7TN60 780-810) [polypeptide amino acids 780–810 of TMC6], the binding result with FLAG-tagged Gαq [2] was “binds”.
